This assay deals with BDF1 mice, B16 melanoma ip, median survival T/C. Kind of assay: NCI In Vivo Anticancer Drug Screen. Data for tumor model B16 Melanoma (intraperitoneal) in B6D2F1 (BDF1) mice. The note with it: T/C endpoint: median survival time, higher T/C = longer survival. An outline of the steps: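 Transplantable tumor model; survival or tumor size measured; reported as T/C, treated over vehicle control.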

Setting [1] is: dose: 0.12 mg/kg/injection, schedule: Q01DX009 (ip), vehicle: saline.
Where [2] appears, read: dose: 1.0 mg/kg/injection, schedule: Q01DX009 (ip), vehicle: saline sonified.
Where [3] appears, read: dose: 4.0 mg/kg/injection, schedule: Q01DX002 (ip), vehicle: saline.
The mark [4] stands for this setting: dose: 400.0 mg/kg/injection, schedule: Q01DX009 (ip), vehicle: Klucel (hydroxypropylcellulose) (HPC).
Where [5] appears, read: dose: 100.0 mg/kg/injection, schedule: Q01DX009 (ip), vehicle: saline with Tween-80.

The list does not hold the whole screen: it is rich in T/C values a quarter to a half above the control, in often repeated tests (any T/C) and in doses without a T/C. Other doses and runs of a compound stand elsewhere. T/C is the treated group as % of the vehicle group. Some entries give survivors of the animals treated and no T/C: the source holds a T/C of zero for them, seemingly a mark for toxic or unscored doses. Some survivor counts are full or nearly so, which does not show that the dose was tolerated: the source hardly ever lists a survival T/C far under the control, and the zero likely stands for such cases as well. Survivors were counted at the toxicity check, usually on the fifth day, unless a day is given; later deaths do not show. Schedules are NCI's codes, read here as Q, the interval in days (D) or hours (H), X, the number of doses. Counts like (3×) give the number of equal values in this list. Some doses were run more than once; the values are given in rising order. Where survival is the endpoint, this PubChem deposit counts one and a half times the control or more as active, and values a quarter to a half above the control carry no call in these data; other NCI protocols may use other cut-offs. Some T/C values carry the count of animals alive at the toxicity check (mostly the fifth day); where none is given, no animal had died by that day.

On to `C1CN1c1nc(N2CC2)nc(N2CC2)n1`, for which the T/C under setting [1] was 95, 102 (3×), 105, 106, 112, 119, 130 % of control; the T/C (dose: 0.13 mg/kg/injection, schedule: Q01DX009 (ip), vehicle: saline, evaluated on day 45) is 102, 110, 148 % of control; the T/C (dose: 0.13 mg/kg/injection, schedule: Q01DX009 (ip), vehicle: saline, evaluated on day 60) was 101, 103 [4 of 6 alive], 104, 105, 106, 115 (2×), 117 (2×), 122, 129, 133 % of control [4 of 6 alive]; the T/C (dose: 0.2 mg/kg/injection, schedule: Q01DX009 (ip), vehicle: saline, evaluated on day 45) is 111 % of control; the T/C (dose: 0.2 mg/kg/injection, schedule: Q01DX009 (ip), vehicle: saline, evaluated on day 60) is given as 116, 123, 133 % of control; the T/C (dose: 0.25 mg/kg/injection, schedule: Q01DX009 (ip), vehicle: saline, evaluated on day 45) is 100 and 135 % of control (2×). For the same compound, the T/C reads like this: (dose: 0.25 mg/kg/injection, schedule: Q01DX009 (ip), vehicle: saline, evaluated on day 60) 97 (2×), 100, 102, 103 [5 of 6 alive], 107, 110, 111, 112, 115 (2×), 117 (2×), 119, 121, 122, 125, 126 % of control (2×); (dose: 0.4 mg/kg/injection, schedule: Q01DX009 (ip), vehicle: saline, evaluated on day 45) 136 % of control; (dose: 0.4 mg/kg/injection, schedule: Q01DX009 (ip), vehicle: saline, evaluated on day 60) 114, 134, 150 % of control; (dose: 0.5 mg/kg/injection, schedule: Q01DX002 (ip), vehicle: saline) 104, 113, 114, 120, 126 % of control; (dose: 0.5 mg/kg/injection, schedule: Q01DX009 (ip), vehicle: saline, evaluated on day 45) 100 and 102 % of control; (dose: 0.5 mg/kg/injection, schedule: Q01DX009 (ip), vehicle: saline, evaluated on day 60) 89, 90 (2×), 95, 100, 102, 103, 117, 121 (2×), 122 (2×), 125, 126, 127, 138, 147, 167 % of control. Besides, the T/C by setting is: (dose: 0.5 mg/kg/injection, schedule: Q08DX002 (ip), vehicle: saline with Tween-80) 136 % of control; (dose: 0.5 mg/kg/injection, schedule: Q08DX002 (ip), vehicle: saline, evaluated on day 45) 107 and 112 % of control; (dose: 0.5 mg/kg/injection, schedule: Q08DX002 (ip), vehicle: saline, evaluated on day 60) 90 [4 of 6 alive], 100 (2×), 102 (2×), 109, 113, 116, 117, 118, 123, 130 % of control; (dose: 1.0 mg/kg/injection, schedule: Q01DX002 (ip), vehicle: saline) 110 [5 of 6 alive], 111, 120 [5 of 6 alive], 121, 142 % of control; under setting [2], 130 % of control; (dose: 1.0 mg/kg/injection, schedule: Q01DX009 (ip), vehicle: saline, evaluated on day 45) 97 [5 of 6 alive] and 102 % of control. Besides, the T/C is, setting by setting: (dose: 1.0 mg/kg/injection, schedule: Q01DX009 (ip), vehicle: saline, evaluated on day 60) 86 [5 of 6 alive], 100, 103 [4 of 6 alive], 115, 117, 134 % of control; (dose: 1.0 mg/kg/injection, schedule: Q08DX002 (ip), vehicle: saline, evaluated on day 45) 95, 112, 157 % of control; (dose: 1.0 mg/kg/injection, schedule: Q08DX002 (ip), vehicle: saline, evaluated on day 60) 100, 100 [4 of 6 alive], 105 [5 of 6 alive], 107, 116, 117, 123, 125, 126, 127, 148 % of control; (dose: 2.0 mg/kg/injection, schedule: Q01DX002 (ip), vehicle: saline) 95, 97, 102, 132, 146 % of control; (dose: 2.0 mg/kg/injection, schedule: Q08DX002 (ip), vehicle: saline sonified) 131 % of control; (dose: 2.0 mg/kg/injection, schedule: Q08DX002 (ip), vehicle: saline with Tween-80) 133 and 136 % of control. Also, the T/C is 92 and 122 % of control (dose: 2.0 mg/kg/injection, schedule: Q08DX002 (ip), vehicle: saline, evaluated on day 45); 97, 103, 111, 115, 122, 125, 132, 147, 154, 158, 164 % of control (dose: 2.0 mg/kg/injection, schedule: Q08DX002 (ip), vehicle: saline, evaluated on day 60); 113 % of control under setting [3]; 115 % of control (dose: 4.0 mg/kg/injection, schedule: Q08DX002 (ip), vehicle: saline, evaluated on day 45); 97, 102, 120 [5 of 6 alive], 155 % of control (dose: 4.0 mg/kg/injection, schedule: Q08DX002 (ip), vehicle: saline, evaluated on day 60). The survivor count under setting [1] is recorded as 6 of 6; the survivor count (dose: 0.25 mg/kg/injection, schedule: Q01DX009 (ip), vehicle: saline) is 5 of 6 and 6 of 6; the survivor count (dose: 0.5 mg/kg/injection, schedule: Q01DX009 (ip), vehicle: saline) is 10 of 10 and 6 of 6 (2×); the survivor count (dose: 0.5 mg/kg/injection, schedule: Q08DX002 (ip), vehicle: saline) is 6 of 6 (2×); the survivor count (dose: 0.8 mg/kg/injection, schedule: Q01DX009 (ip), vehicle: saline) is 10 of 10; the survivor count under setting [2] was 6 of 6. The survivor count by setting is: (dose: 1.0 mg/kg/injection, schedule: Q01DX009 (ip), vehicle: saline) 5 of 6 (2×), 9 of 10, 10 of 10, 6 of 6; (dose: 1.0 mg/kg/injection, schedule: Q08DX002 (ip), vehicle: saline) 5 of 6 and 6 of 6; (dose: 1.6 mg/kg/injection, schedule: Q01DX009 (ip), vehicle: saline) 4 of 10; (dose: 2.0 mg/kg/injection, schedule: Q01DX009 (ip), vehicle: saline) 8 of 10 and 10 of 10; (dose: 2.0 mg/kg/injection, schedule: Q01DX009 (ip), vehicle: suspension in saline) 10 of 10; (dose: 2.0 mg/kg/injection, schedule: Q08DX002 (ip), vehicle: saline) 1 of 6 and 6 of 6 (2×). The survivor count by setting is: (dose: 3.2 mg/kg/injection, schedule: Q01DX009 (ip), vehicle: saline) 6 of 10; under setting [3], 5 of 6 and 6 of 6; (dose: 4.0 mg/kg/injection, schedule: Q08DX002 (ip), vehicle: saline sonified) 5 of 6 and 6 of 6; (dose: 4.0 mg/kg/injection, schedule: Q08DX002 (ip), vehicle: saline with Tween-80) 6 of 6; (dose: 4.0 mg/kg/injection, schedule: Q08DX002 (ip), vehicle: saline) 0 of 6, 1 of 6, 3 of 6, 4 of 6, 5 of 6, 6 of 6 (2×).

On to `Cc1ccc(NC(=S)NC(Cc2ccccc2)c2ccccc2)c(C)c1` (stereo not given), for which the survivor count runs as follows: (dose: 200.0 mg/kg/injection, schedule: Q01DX009 (ip), vehicle: Klucel (hydroxypropylcellulose) (HPC)) 10 of 10; under setting [4], 10 of 10.

Regarding `CC(C)(C)CC(C)(C)c1ccc(O)c(O)c1`, the survivor count reads like this: (dose: 50.0 mg/kg/injection, schedule: Q01DX009 (ip), vehicle: saline with Tween-80) 10 of 10; under setting [5], 9 of 10.

For the compound `Nc1ccc(OCc2ccc(S(=O)(=O)F)c(Cl)c2)c(Cl)c1`, the survivor count under setting [4] is 6 of 10.

On to `O=C(O)C1Cc2c([nH]c3ccccc23)C(CCCCO)N1` (stereo not given), for which the survivor count (dose: 50.0 mg/kg/injection, schedule: Q01DX009 (ip), vehicle: Klucel (hydroxypropylcellulose) (HPC)) is 10 of 10.

Turning to `NS(=O)(=O)OCCCCCCCOS(N)(=O)=O`, the survivor count is recorded as 10 of 10 under setting [5]; 10 of 10 (dose: 200.0 mg/kg/injection, schedule: Q01DX009 (ip), vehicle: saline with Tween-80); 9 of 10 (dose: 400.0 mg/kg/injection, schedule: Q01DX009 (ip), vehicle: saline with Tween-80).

For the origin of these results see PubChem BioAssay AID192 (DTP/NCI, 2004).
